# Experimental data: PubChem BioAssay AID602196 (INSERM, 2012)
# Screen: 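Genes whose knock-down alters cisplatin killing of lung cancer cells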
# Cell system: human A549 lung cancer cells
# Reagents: siRNA pair against human genes
# Time to read-out: 48 h transfection before cisplatin; time from cisplatin to read-out not stated
# Treatment: cisplatin at a dose killing half of control-siRNA cells; exact dose and duration not given
# Measurement: 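Cisplatin cell death as a shift from the 50% death seen with control siRNA; siRNAs toxic or growth-blocking alone scored 0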
# Direction: two-siRNA summed score (-2 to +2): higher = both siRNAs protect from cisplatin killing; -2 means both sensitise; mean protection from cisplatin (shift in death): higher = protection from cisplatin killing
# Active means: 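siRNAs harmful alone (LDH or WST-1) get 0; others get +1 for less and -1 for more cisplatin killing; genes are active when the two siRNAs give the same sign, summing to ±2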
# Calls: active = both siRNAs shift cisplatin killing the same way; inactive = no consistent shift, or siRNA harmful alone
# This is a random part of about 23,000 reagents. 455 of all reagents (2%) count as active. 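Active includes both protection and sensitisation; some change values fall well beyond the stated -50 to +50 range.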 Not all columns of the deposit are shown. Not stated in the record: the amount of reagent.
target,two-siRNA summed score (-2 to +2),mean protection from cisplatin (shift in death) (%),Call
CMC1 (GeneID 152100),0,-3.4,inactive
DPYSL3 (GeneID 1809),0,-7.2,inactive
FOSB (GeneID 2354),0,19.5,inactive
GSN (GeneID 2934),0,19.4,inactive
CALCOCO2 (GeneID 10241),1,5.6,inactive
PANK4 (GeneID 55229),-1,-0.2,inactive
SPOCK1 (GeneID 6695),1,14.5,inactive
ADM (GeneID 133),0,2.7,inactive
TIMP2 (GeneID 7077),0,2.3,inactive
COL7A1 (GeneID 1294),0,16.4,inactive
MAPRE1 (GeneID 22919),0,-10.7,inactive
C16orf78 (GeneID 123970),0,-7.6,inactive
LOC161527,0,9.3,inactive
PAN2 (GeneID 9924),0,-1.4,inactive
CCN6 (GeneID 8838),0,-6.7,inactive
OR2A7 (GeneID 401427),0,6.2,inactive
TCEAL1 (GeneID 9338),0,6.6,inactive
KRTAP11-1 (GeneID 337880),0,4.8,inactive
TPRKB (GeneID 51002),-1,-5.6,inactive
LOC440122,0,-1.8,inactive
DCANP1 (GeneID 140947),0,-2.6,inactive
RCOR2 (GeneID 283248),-1,-9.2,inactive
MMAA (GeneID 166785),1,9.3,inactive
AHRR (GeneID 57491),0,9,inactive
UIMC1 (GeneID 51720),0,-6.8,inactive
IRF2BP2 (GeneID 359948),1,6.9,inactive
PLSCR4 (GeneID 57088),-1,-10.6,inactive
ZNF41 (GeneID 7592),0,5.2,inactive
SAMD4A (GeneID 23034),1,3.8,inactive
FANK1 (GeneID 92565),0,-5,inactive
KLC2 (GeneID 64837),0,-5.2,inactive
MRPL20 (GeneID 55052),0,-1.6,inactive
LOC441018,1,8.6,inactive
ZSCAN12 (GeneID 9753),0,5.9,inactive
MBLAC2 (GeneID 153364),1,9.4,inactive
RNF25 (GeneID 64320),0,-0.3,inactive
LOC441506,0,21.9,inactive
LOC440276,1,11.5,inactive
UTF1 (GeneID 8433),1,11.7,inactive
NOL9 (GeneID 79707),0,3.8,inactive
LOC402165,0,-5.2,inactive
ZNF224 (GeneID 7767),1,16,inactive
C6orf52 (GeneID 347744),-1,-7.9,inactive
OR4M1 (GeneID 441670),0,8.9,inactive
RASGRP2 (GeneID 10235),0,10.5,inactive
ZNF543 (GeneID 125919),0,14.2,inactive
SHISAL2A (GeneID 348378),0,4.6,inactive
ABRA (GeneID 137735),0,-1.4,inactive
NOX5 (GeneID 79400),0,-4.2,inactive
SFRP1 (GeneID 6422),0,6.3,inactive
ESS2 (GeneID 8220),0,-5,inactive
TTLL2 (GeneID 83887),0,1.7,inactive
KCNMB3 (GeneID 27094),0,-10.7,inactive
SPATA17 (GeneID 128153),0,-0.5,inactive
KRT18P55 (GeneID 284085),1,26.5,inactive
STING1 (GeneID 340061),0,2.1,inactive
RBM19 (GeneID 9904),0,8.1,inactive

5 neighbouring records already listed, for reference:
target,two-siRNA summed score (-2 to +2),mean protection from cisplatin (shift in death) (%),Call
RCOR2 (GeneID 283248),-1,-9.2,inactive
MMAA (GeneID 166785),1,9.3,inactive
AHRR (GeneID 57491),0,9,inactive
UIMC1 (GeneID 51720),0,-6.8,inactive
IRF2BP2 (GeneID 359948),1,6.9,inactive
